Measured values from patent publication US20260125477A1.

Biological target: monkey B7-H3/CD276 protein, with His tag (monkey)
Test: SPR (Biacore T200)

- binding: binds
B1: 10F5 (antibody, human IgG1, kappa, V domains shown)
VH: QVQLVQSGAEVKKPGSSVKVSCKASGGTFSSQAISWVRQAPGQGLEWMGRIIPMLGIGDYAQSFQGRVTITADKSTSTAYLEVSSLGSEDTAVYYCAREGIAALGTNYYYGMDVWGQGTAVTVSS
VL: EIVMTQSPSSVSASVGDRVTITCRASQGISRWLAWYQQKPGKAPKLLIYVASSLQSGVPSRFSGSGSGTDFTLTISSLQPEDFATYYCQQANSFPFTFGPGTKVDIRR

- binding: binds
B2: 6B5 (antibody, human IgG1, kappa, V domains shown)
VH: QVQLVESGPGLVKPSQTLSLTCTVSDGSISSGGYYWSWIRQHPGKGLEWIGYIYYSGGTYYSPSLKSRVTISVDTSKNQFSLKLTSVTAADTAVYYCARRAGYSSSFDSWGQGILVTVSS
VL: EIVLTQSPLSLPVTPGEPASISCRSSQSLLYSNGYTYLDWYLQKPGQSPQFLIYLGFNRASGVPDRFSGSGSGTDFTLKISRVEAEDVGVYYCMQGLQTPYTFGQGTKLEIKR

- binding: binds
B3: 10D7 (antibody, human IgG1, kappa, V domains shown)
VH: QVQLVQSGPGLVKPSETLSLTCTVSGGSISRSSYYWGWIRQPPGKGLEWIGNIFYAGSTYYNPSLKSRVTISVDTSKNQFSLKLSSVTAADTAVYYCARRITGTTGWFDPWGQGTLVTVSS
VL: DIQLTQSPSSLSASVGDRVTITCRASQGIRNDLGWYQQKPGKAPKLLIYAASTLQSGVPSRFSGSGSGTDFTLTISSLQPEDFATYYCLQDYNYPRTFGQGTKVEIKR

These are yes or no findings as the source states them, for the method shown. Binding calls can cover weak binding; strength is not graded here. Each block holds one binder with its values, some of them ahead of it.
